SMILES strings stand for the structures. No dose or concentration is given here for some results.

For the data set, the system named is 60 kinds of different human cancer cells. Kind of data set: NCI 60-cell drug screen, whole panel (One Dose Mean Graph). Format: cell-based. The following applies: 1.00E−5 Molar.
For `O=C1c2ccccc2C(=O)c2c1ccc1nc(S)[nH]c21` [f1-0, 2-Mercapto-1(3)H-anthra[1,2-d]imidazole-6,11-dione], the “Growth Percent, Delta” value was 49.19% and the “Growth Percent, Range” value was found to be 91.13%.
As for `CCSc1nc2ccc3c(c2[nH]1)C(=O)c1ccccc1C3=O` [f1-1, 2-(Ethylthio)-1H-anthra[1,2-d]imidazole-6,11-dione], the “Growth Percent, Delta” value worked out at 75.97% and the “Growth Percent, Range” value was found to be 137.32%.
With `CCCSc1nc2ccc3c(c2[nH]1)C(=O)c1ccccc1C3=O` [f1-2, 2-(propylthio)-1H-anthra[1,2-d]imidazole-6,11-dione], the “Growth Percent, Delta” value is on record as 69.57% and the “Growth Percent, Range” value came out at 113.73%.
With `O=C1c2ccccc2C(=O)c2c1ccc1nc(SCCN3CCCC3)[nH]c21` [f1-11], the “Growth Percent, Delta” value is reported as 112.25% and the “Growth Percent, Range” value was 172.48%.
In the case of `CN(C)CCCSc1nc2ccc3c(c2[nH]1)C(=O)c1ccccc1C3=O` [f1-15, 2-(3-(dimethylamino)propylthio)-1H-anthra[1,2-d]imidazole-6,11-dione], the “Growth Percent, Delta” value was 79.00% and the “Growth Percent, Range” value amounted to 146.09%.
`O=C1c2ccccc2C(=O)c2c1ccc1nc3n(c21)CCS3` [f3-1, 2-(2-N-ethylthio)-1H-anthra[1,2-d]imidazole-6,11-dione]: the “Growth Percent, Delta” value turned out to be 40.19% and the “Growth Percent, Range” value was determined as 73.56%.

The values above are taken from patent US8067454B2, “Thio-substituted Anthra [1, 2-d] imidazole- 6, 11-dione derivatives, preparation method and application thereof” (National Defense Medical Center, priority 2010, dated 2011).
